Results are given in words; binding and its absence hold for the method and conditions named. In cells and extracts the contact can be indirect. Here binding means that the protein was enriched with, or labelled near, the bait; the list need not be complete. Values belong to the molecule of their own block, whether it stands above or below them.
Molecular target: T1, NWC protein (mouse (endogenous in testes)) (UniProt Q9CQI4)
T1 sequence: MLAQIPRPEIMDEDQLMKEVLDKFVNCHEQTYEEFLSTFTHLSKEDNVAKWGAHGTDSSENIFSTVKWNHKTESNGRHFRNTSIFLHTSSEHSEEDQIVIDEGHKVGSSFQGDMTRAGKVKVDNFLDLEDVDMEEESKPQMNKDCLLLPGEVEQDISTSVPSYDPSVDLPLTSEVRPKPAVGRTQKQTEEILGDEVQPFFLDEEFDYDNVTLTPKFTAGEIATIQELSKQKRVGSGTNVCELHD
Assay: affinity purification with mass spectrometry; Pierce Co-Immunoprecipitation Kit; anti-NWC polyclonal Ab285 (15 ug) immobilised on agarose resin; cleared testes lysates of wild-type mice, overnight at 4 °C; NWC-KOMPcre testes lysates and control rabbit IgG as negative controls; eluates analysed by LC-MS-MS/MS; four independent experiments

By UniProt entry, the sequences of proteins in these tests, tags left out.
UniProt P62627: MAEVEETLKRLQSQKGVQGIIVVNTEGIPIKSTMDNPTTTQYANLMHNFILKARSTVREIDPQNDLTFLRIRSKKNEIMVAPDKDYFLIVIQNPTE

binding: binds
Molecule: Carbonic anhydrase 2 (from UniProt P00920 1-260)

binding: binds
Molecule: Dynein light chain roadblock-type 1 (from UniProt P62627 1-96)

binding: binds
B1: IFT-144 (protein, UniProt Q3UGF1 1-1341)
chain: MKRVFSLLEKSWLGAPIQFAWQKSSGNYLAVTGADYIVKIFDRHGQKRSEISLPGNCVTMDWDKDGDILAVIAEKSSCIYLWDANTNKTSQLDNGMRDQMSFLLWSKIGSFLAVGTIKGNLLIYNHQTSRKIPVLGKHTKKITCGCWNSENLLALGGEDKMITVSNQEGDTIRQTPVKSEPSDIKFSMSKTDERISSAENTISAVVGKKMLFLFHLNEPDNPVDLEFQQAYGNIVCYSWYGDGYIMIGFSRGTFLAISTHFPEVGQEIFKARDHKDNLTSVALSQTLNKAATCGDNCIKIHDLTELRDMYAIINLDDENKGLGTLSWTDDGQLLALSTQRGSLHVFLTKLPILGDACHTRIAYLTSLLEVTVANLIEGEPPITVSVDVEPTFVAVGLYHLAVGMNNRAWFYVLGENVVKKLKDVEYLGTVASICLHSDYAAALFEGKIQLHLIENEMLDAQEERETRLFPAVDDKCRILCHALTSDFLIYGTDTGIIHYFFIEDWQFVNDYRHPVGVKKLFPDPNGTRLVFIDEKSDGFVYCPVNDATYEIPDFSPTIKGVLWENWPMDKGVFIAYDDDKVYTYAFHKDTIQGSKVILAGSTKLPFSHKPLLLYNGELTCQTQSGKINSIYLSTHSFLGSMKDTEPTDLRQMLTQTLLLKRFSDAWDICKMLNDRTSWSELAKACLHHMEVEFAIRVSRTMGDVGTVMSLEQIKGIEDYNLLAGHLAMFTNDFNLAQDLYLASNCPVAALEMRRDLQHWDSALQLAKRLAPDQIPFISKEYAIQLEFTGDYVNALAHYEKGITGDNKEHDEVCLAGVAQMSIRMGDIRRGANQALKHPSRVLKRDCGAILENMKQFSEAAQLYEKGQYYDRAASVYIRCKNWAKVGELLPHVSSPKIHLQYAKAKEADGRYKEAVVAYENAKQWNSVIRIYLDHLNNPEKAVSIVRETQSLDGAKMVARFFLQLGDYGSAIQFLVLSKCNNEAFTLAQQHNKMEIYADIIGAEDTTNEDYQSIALYFEGEKRHFQAGKFFLLCGQYSRALKHFLKCPSSEDNVAIEMAIETVGQAKDELLTNQLIDHLMGESDGMPKDAKYLFRLYMALKQYREAARTAIIIAREEQSAGNYRNAHDVLFSMYAELKAQKIKIPSEMATNLMILHSYILVKIHVKSGDHMKGARMLIRVANNISKFPSHIVPILTSTVIECHRAGLKNSAFSFAAMLMRPEYRNKIDAKYKKKIEAMVRRPDTSETEEATTPCPFCQFLLPECELLCPGCKNNIPYCIATGRHMLKDDWTMCPHCGFPALYSEFKILLNSESTCPMCSERLNSSQLKKITDCSQYLRTEME

binding: binds
B2: IFT-139 (Ttc21b) (protein, UniProt Q0HA38 1-1315)
chain: MDSQGLKTLINYYCQERYYHHVLLVASEGMKKYSSDPVFRFYHAYGTLMEGKAQEALREFEAIKNKQDVSLCSLMALMYVHKMSPNPDREAILELDTKMKEQRKEAGRKALYHAGLFLWHIGRHDKAREYIDRMSKMPHDSNEGPILKAWLDITRGKEPYAKKALRYFEEGLQDGNDIFALLGKVLCLEIRQNYSGALETVSQIIVNFPSFLPAFEKKMKLQLALQDWDQTVETAQRLLLQDNHNVEALRMLALYYLCREGDVEKAATKLENLGNALDVMEPQNAQLFYKITLAFSRTCGRNQLILQKVQSFLEKAFSLTPQQAEIATELGYQMILQGKVKEAWKWYRTAMTLNESNISAVTGLIRCQLIEGQLQDADQQLEFFSEFQQSMGKSAELMYLHAVLATKKNNRQDEVINLLNDVVNTHFSHLEDLPLGIQYFEKLNPDFLLEVVTEYLNLCPIQPAGPGQPLSPVLRRCSSVLETIIRSVPGLPQAVFLMAKVKYLSGDTEAAYNNLQHCLEHSPSYAEAHLLMAQVYLSQDKVKLCSQSLELCLSYNFNVREYPLYHLIKAQSQKKMGEVAEAIKTLHMAMNLPGMRRSRASSKSKHRTEVDASHRLSIFLELVEVHRLNGEQHEAAKVLQDAIHEFSGTCEELRVTIANADLALAQGDTDRALSMLRNVTTEQPYFIEAKEKMADIYLKHRKEKMLYITCYREIAERMPSPRSFLLLGDAYMNIQEPEEAIVAYEQALNQNPKDGTLARKIGKALVKTHNYSKAITYYEAALKSGQQNCLCYDLAELLLRLKLYEKAEKVLQHSLAHEPVSELSALMVDGRSQVLLAKVYSKMERPSDAIAALQQARELQARILKRVQMEQPDAVPSQKHFAAEICAEIAKHSAAQRDYEKAITFYREALVHCETDSKIMLELAQLYLAQEDLDASLRHCALLLQRDQDNEPATMLMADLMFRKQDYEQAVYHLQQLLDRKPDNFMTLSRLIDLLRRCGKLEDVPRFFLMAEKHNSRTKLEPGFQYCKGLHFWYTGEPNDALRHFNKARKDSDWGQNALYNMIEICLNPDNETIGGEVFENLNGDLGTSPEKQESVQLAVRTAEKLLKELKPQTVQGRLQLRIMENCCLMATKQKSSVEQALNTFTEIAASEKDHIPALLGMATAYMILKQTPKARNQLKRIAKMPWNPIEAEDLEKSWLLLADIYIQSAKYDMAEELLKRCLCHNRSCCKAYEYMGYIMEKEQAYTDAAFNYEMAWKHSNQTNPAVGYKLAFNYLKAKRYVDAIDVCHQVLEAHPTYPKIRKDILDKARASLRP

binding: binds
B3: Radial spoke head protein 9 homolog (protein, UniProt Q9D9V4 1-276)
chain: MDADSLLLSLELASGSGQGLSPDRRASLLTSLMLVKRDYRFARVLFWGRILGLVADYYIAQGLSEDQLAPRKTLYSLNCTEWSLLPPATEEMAMQISVVSGRFMGDPSHEYEHTELQKVNEGEKVFDEEVVVQIKEETRLVSIIDQIDKAVAIIPRGALFKTPFGVTHVNRTFEGLPLSEVRKLSSYFHFREAIDLKNKTLLEKSDLEPSLDFLDSLEYDIPRGSWSIQMERGNALVVLRSLLWPGLTFYHAPRTKNYGYIYVGTGEKNMDLPFML

binding: binds
B4: IFT-43 (protein, UniProt Q9DA69 1-206)
chain: MDDLLDLGEERRRSSATSGAKMGRRAHQESTQAENYLNSKNSSLTQTGEAPPPKPPRRQGGWADDSMKMAKLGKKVSEEMEDHRLRQQNLMGSDDDDIPVIPDLEDVQEEDFVLQVASPPSIQVNRVMTYRDLDNDLMKYSAFQTLDGEIDLKLLTKVLAPEHEVREDDVGWDWDHLYTEVSSELLTEWDLLRAEKEDPVGPSRYI

binding: binds
B5: Radial spoke head protein 6 homolog A (protein, UniProt Q8CDR2 1-708)
chain: MGEPPPNPDPSQTRRASQGSERARSQEYSQPLLTIPEDGLNRPPPQRGSRSSQGSQDLQGTGLPHWPQRSSLVPDVQGDEGTEYHQSMPLGYTPGFPMEFSQQGYLDDSRMMEQFPQGQDLLEQLESTYQGSASGILGQLNLYPREDEIFSQDTQHGPYLRDDPSLHLRPSDLGFMPIVGEVPDPEPRELAIQNAKAYLLRTSMSCNLSLYEHLVNLLTKILNQRPEDPLSILESLNRTMQWEWFHPKLDTLRDDPEMQPTYEMAEKQKALFIRGGGEGEQEMEEEVTDSPVPNIMETAFYFEQAGVGLSSDESFRIFLALKQLVEQQPIHMCRFWGKILGLSRSYLVAEVEFREGEEEGEEEEVEEMMEGGEVLETHGEEEGEEDEEKVVDSVPKPQWKPPPIIPKEESRSGTNKYLYFVCNEPGRPWTRLPHVTPAQIVCARKIKKFFTGFLDTPVISYPPFPGNEANYLRAQIARISAATHISPLGFYQFGEEEGDEEEEGGAGRDSFEENPDFEGIPVLELVDSMANWVHHTQHILPQGRCTWVNPLQKTEEEEELGEEEEKADEAMEEVEQEVGPPLLTPLSEDAEIMHLSPWTTRLSCSLSPQYSVAIVRSNLWPGAYAYATGKKFENIYIGWGHKYSPENFNPMLPALIQQEYPSGPEITEMSDPTVEEEQALKAAQEQALAAAEEEEEDEEEEEDEDLED

binding: binds
B6: IFT-122 (protein, UniProt Q6NWV3 1-1182)
chain: MRAVLTWRDKAEQCIYDLAFKPDGTQLILAAGNRLLVYDTSDGTLLQPLKGHKDTVYCVAYAKDGKRFASGSADKSIIIWTSKLEGILKYTHNDSIQCVSYNPVTHQLASCSSSDFGLWSPEQKSVSKHKSSSKITCCSWTNDGQYLALGMANGIISIRNKNGEEKVKIERPGGSLSPIWSICWNPSREEHNDILAVADWGQKLSFYQLSGKQIGKDRPLNFDPCCISYFTKGEYILVGGSDKQVSLFTKDGVRLGTVGEQNSWVWTCRVKPDSNYVVVGCQDGTISFYQLIFSTVHGLYKDRYAYRDSMTDVIVQHLITEQKVRIKCRELVKKIAIYKNRLAIQLPEKILIYELYSEDSTDMHYRVKEKIVKKFECNLLVVCADHIILCQEKRLQCLSFSGVKEREWQMESLIRYIKVIGGPAGREGLLVGLKNGQILKIFVDNLFAIVLLKQATAVRCLDMSASRNKLAVVDENDTCLVYDIHTKELLFQEPNANSVAWNTQCEDMLCFSGGGYLNIKASTFPVHQQKLQGFVVGYNGSKIFCLHVFSMSAVEVPQSAPMYQYLDRKMFKEAYQIACLGVTDADWRELAMEALEGLEFETARKAFTRVQDLRYLELISSIEERKKRGETNNDLFLADVFSYQGKFHEAAKLYKRSGHENLALDMYTDLCMFEYAKDFLGSGDPKETKMLITKQADWARNINEPKAAVEMYISAGEHAKAIEISGSHGWVDMLIDIARKLDKAEREPLLMCACYFKKLDSPGYAAETYLKIGDLKSLVQLYVDTKRWDEAFALGEKHPEFKDDVYVPYAQWLAENDRFEEAQKAFHKAGRQGEAVRVLEQLTHNAVVESRFNDAAYYYWMLSMQCLDMAQDPAQKDAMLDKFHHFQHLAELYHGYQTIHRYTEEPFSFDLPETLFNISKFLLHSLTKATPLGISKVNTLFTLAKQSKALGAYKLARHAYDKLRGLQIPARIQKSIELGTLTIRSKPFHDSEELVPLCYRCSTNNPLLNNLGNVCINCRQPFIFSASSYEVLHLVEFYLEEGITDEEAVALIDLEAPRHKREGKWRETSSNNSQTLKLDETMDSIGEDDPFTAKLSFEQGSSEFVPVVVNRSVLRSMSRRDVLIKRWPPPLQWQYFRSLLPDASITMCPSCFQMFHSEDYELLVLQHACCPYCRRRIDDTGP
